According to PubChem BioAssay AID504325 (Broad Institute, 2011):
“And” between values parts separate entries of the source, which are not always exact repeats. Equal values may be shown once. Inconclusive results, whose numbers are uncertain, are shown with a selection of clear calls. The source made the active and inactive calls.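 Rule for the calls: active = every replicate test active, with falling signal and half-maximal potency at or below ten times the top dose; inconclusive = replicate tests give conflicting calls; inactive = all tests inactive, or signal shifts the wrong way.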

Test: cytotoxicity in HMLE_sh_eGFP control cells, dose response, counter-screen for breast cancer stem cell project, cell-based, dry powder, set 2 (AID 504325)
Settings: HMLE_sh_eGFP viability, CellTiter-Glo luminescence, 72 h; at 30 µM (top of the series)
Outline: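 Assay system: HMLE_sh_eGFP control breast epithelial cell line / Medium: serum-free culture medium / Schedule: ~72 h compound exposure, 37 °C / Detection: luminescent ATP detection, CellTiter-Glo diluted 1:3 in PBS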

| SMILES | activity change, negative = cytotoxic |
| --- | --- |
| O=C(/C=C/c1ccc(Cl)cc1Cl)NC1=NCCS1 | inconclusive: -2.8% |
| CCN(CC)C(=O)/C=C/c1ccc(C(C)C)cc1 | inconclusive: -9.86% |
| Cc1cc(Cl)ccc1OCC(=O)N/N=C/c1ccc[nH]1 | inconclusive: -62.7% |
| Cc1cc(C)c(/C=N/NC(=O)COc2ccc(Cl)cc2Cl)[nH]1 | inconclusive: -1.83% |
| Cn1cccc1/C=N/NC(=O)COc1ccc(Cl)cc1Cl | inconclusive: -6.34% |
| O=C(COc1cc(Cl)ccc1Cl)N/N=C/c1ccc[nH]1 | inconclusive: -50.5% |
| O=C(Nc1ccccc1)c1ccc(COc2ccccc2)o1 | inconclusive: -20.3% |
| Cc1c(C(=O)NC2=NCCS2)oc2ccccc12 | inconclusive: -39.3% |
| CC(=O)Oc1ccccc1/C=C/C(=O)NC1=NCCS1 | inactive: 0.09% |
| O=C(COc1ccc(F)cc1Cl)N/N=C/c1ccc[nH]1 | inconclusive: -40.9% |
| O=C(COc1ccc(Cl)cc1Cl)N/N=C/c1ccc[nH]1 | inconclusive: -74.5% and inactive: -54.1% |
| O=C(O)c1ccc(COc2ccccc2)o1 | inactive: 1.43% |
| O=C(NC1CCCC1)c1ccc(COc2ccccc2)o1 | inconclusive: 5.4% |
| C/C(=N\NC(=O)COc1ccc(Cl)cc1Cl)c1ccc[nH]1 | inconclusive: 8.21% |
| O=C(COc1c(Cl)cccc1Cl)N/N=C/c1ccc[nH]1 | inconclusive: -16.4% |
| Cc1ccccc1/C=C/C(=O)NC1=NCCS1 | inactive: 6.57% |
| O=C(/C=C/c1ccc(Cl)c(Cl)c1)NC1=NCCS1 | inconclusive: 5.08% |
| O=C(/C=C/c1ccc(-c2ccccc2)cc1)NC1=NCCS1 | inconclusive: -28.8% |
| CN(C)c1ccc(/C=C/C(=O)NC2=NCCS2)cc1 | inconclusive: -38.4% |
| COc1ccc(OC)c(/C=C/C(=O)NC2=NCCS2)c1 | inactive: 2.36% |
| O=C(NC1=NCCS1)c1cc2ccccc2[nH]1 | inconclusive: -2.21% |
| CC(C)(C)c1ccc2c(c1)OC(C(=O)N/N=C/c1ccc[nH]1)CO2 (centres undefined) | inconclusive: -83.5% |
| Cc1ccccc1OCC(=O)N/N=C/c1ccc[nH]1 | inactive: 5.25% |
| O=C(COc1ccccc1Cl)N/N=C/c1ccc[nH]1 | inconclusive: -11.7% |

Quoted at random: two entries already listed, in no set order.

| SMILES | activity change, negative = cytotoxic |
| --- | --- |
| CCN(CC)C(=O)/C=C/c1ccc(C(C)C)cc1 | inconclusive: -9.86% |
| Cc1cc(Cl)ccc1OCC(=O)N/N=C/c1ccc[nH]1 | inconclusive: -62.7% |
